# Source: PubChem BioAssay AID1347426 (Functional Genomics Laboratory (NCATS/FGL), 2020)
# Out of some 31,000 sequences screened, about 1,400 (4.5%) were called active.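 The calls were made as follows: active = median seed-adjusted z-score above 1 or below -1; inactive = the rest.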 This is one part of the list.
# Experiment: Novel Modifiers of Survival Motor Neuron (SMN) Protein: Gene Identification via Genome-wide siRNA Screen;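 also: luminescence tracks full-length SMN protein made from the SMN2 reporter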
# Settings: HEK293T SMN2-luciferase reporter, siRNA knockdown, 72 h; actives lie on both sides
# In short: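 Each of three siRNAs per gene is reverse-transfected (1 pmol) into reporter HEK293T cells whose luciferase output tracks SMN protein level. After 72 h culture, ONE-Glo luminescence is control-normalized, log10-transformed and MAD-standardized; Common Seed Analysis deprioritizes seed-driven hits.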
row,Sequence,median seed-adjusted z-score
1,CCCUGUUAGUAACGGCAAATT against OBFC2B,inactive: -0.061
2,GUUCCUCACUUAUCGCUAUTT against ADAMTSL3,inactive: -0.0419
3,GCAGAAACAGACUAUCGAATT against SLK,inactive: 0.0479
4,CGACCUUCUGCGACUAUUUTT against PPP1CA,inactive: 0.115
5,GCUUUACAUGGUUUUCGAATT against CASK,inactive: -0.422
6,CCUGGAUCAUGCAAGAUUATT against MELK,inactive: -0.195
7,CCACAUCCUGGAAAACGAATT against GPR112,inactive: 0
8,CAUCGUUACUGUCAGAAGATT against DAXX,inactive: 0.349
9,CCUUUUUGCUGGACACUGUTT against PLEKHF1,inactive: 0.055
10,GUGUGGUAGCUAUUGACAATT against TSC22D1,inactive: 0
11,GAAACCAUUUUAUCUGGUATT against BCS1L,inactive: 0.167
12,GGACACUGUUGACCCAAAATT against P4HA3,inactive: 0
13,CCGUUACUGCAUCACCAAATT against MOV10,inactive: 0.0759
14,CAGGCAAAGUUCGACAGUATT against HEPH,inactive: -0.293
15,CAGCAGCUUUGUGACACCATT against GPR146,inactive: 0.405
16,CUGAAUUAGUUACUGCUUUTT against SLC24A5,inactive: -0.166
17,GCAUCAUCCUCCUAUCAGATT against DFFA,inactive: -0.494
18,GAUCAUUUCGAGAGAUGUATT against CRLS1,inactive: 0.555
19,GGCCUUUAUCGUCCUCUUUTT against LPCAT4,inactive: 0.338
20,UGAUCAAGAUCAUUCAGCATT against PIP5KL1,inactive: -0.819
21,CCGUGGAUGUUGUUGCUAUTT against WDR36,inactive: 0.00836
22,GUACAGUAAUUAGCCGAAATT against DCAKD,inactive: 0.0872
23,GGAAUUCGAAGACUAAUUATT against TWF1,inactive: -0.171
24,CAUUAUUCCUUCCAAACAATT against SGK3,inactive: 0.178
25,GGAUCGAUAAGUUCCGUUUTT against EPHX1,inactive: 0
26,GCCUUUACCCUUGAAGAAATT against ME3,inactive: 0.166
27,GAAAUGGGCCGGAAACGAATT against CPSF3L,inactive: -0.385

# Part of the list above, with tabs:
row	Sequence	median seed-adjusted z-score
3	GCAGAAACAGACUAUCGAATT against SLK	inactive: 0.0479
7	CCACAUCCUGGAAAACGAATT against GPR112	inactive: 0
11	GAAACCAUUUUAUCUGGUATT against BCS1L	inactive: 0.167
12	GGACACUGUUGACCCAAAATT against P4HA3	inactive: 0
16	CUGAAUUAGUUACUGCUUUTT against SLC24A5	inactive: -0.166
21	CCGUGGAUGUUGUUGCUAUTT against WDR36	inactive: 0.00836
22	GUACAGUAAUUAGCCGAAATT against DCAKD	inactive: 0.0872
23	GGAAUUCGAAGACUAAUUATT against TWF1	inactive: -0.171
24	CAUUAUUCCUUCCAAACAATT against SGK3	inactive: 0.178
26	GCCUUUACCCUUGAAGAAATT against ME3	inactive: 0.166

# Following part

row,Sequence,median seed-adjusted z-score
1,CCGGUGACAUGAAAGAACUTT against SLC14A1,inactive: -0.0585
2,CUCUAACCGUGGUUCCAGATT against SUPT16H,active: 1.2
3,GGCUACUACUUAUACUGGATT against PLCB2,inactive: 0.0845
4,GGAAGAUUCUUUAUGGGUATT against ACAA2,inactive: 0.435
5,CGACAUAACUAUGUUCGGATT against ETF1,active: -1.12
6,CCAUUGACUGUAACUGCAATT against ZNF239,inactive: -0.191
7,GUAUGGUACUAUGAAGUAATT against RSPRY1,inactive: 0.0814
8,CUAACUCCACCGAACGAUATT against B3GNTL1,inactive: 0
9,GUACUAGAGAAAUCAAUAATT against RAD54B,inactive: -0.257
10,CAUGAUCAAUGGAACUUCUTT against SCARB1,inactive: 0.0715
11,GUCGAGUUGUAUCGCAUUATT against COX4I1,inactive: -0.39
12,CCUGCUGAAUCUCACGGAATT against HOXD3,inactive: 0.233
13,GAAGCGGUAUAAUCGAGAATT against GDPD1,inactive: 0.527
14,CACCAGUUGUUGUACAGCATT against NUP155,inactive: 0.141
15,CCUCGGCCGUCAUGAAGAATT against RUNX3,inactive: -0.489
16,AUACUACGUUGAUUACAAATT against LRRTM1,inactive: -0.528
17,CCAGGCUUCUUUUGCAGGATT against PMVK,inactive: 0.269
18,GAGUUCUAUUAAGACGGUUTT against PDZD8,inactive: 0.0582
19,CUAUCUAUGACCAAACCUATT against THBS2,inactive: -0.721
20,GAUUCAGGGCUUAAACGUATT against PEG3,inactive: 0.5
21,CCGACUUCCAGUUCAAGGATT against HCCA2,inactive: 0.862
22,CAUCUUGCCUCAUAGAACATT against LOC91431,inactive: 0.0402
23,CAAUAUAGUAGAGAUGAAATT against DDAH1,inactive: 0.138
24,CAGCUGUUCUCAUAUGCUATT against ATP5G3,inactive: 0
25,GAUUAUAUUUGUCCAGCUATT against ESR2,active: -1.1
26,AGAUGGUCCAAGAUCCAGATT against CHRM4,inactive: -0.856
27,GGAUCAGUUGAGUCGUUUATT against SCYL2,inactive: -0.0652
